{"sequences": {"note": "Amino acid sequences for entries named in this document (tags omitted). A change or cut given only in a name is not applied to a line headed by its entry. Chains listed by the source or under a name are the forms on record and can include a tag or linker.", "UniProt P30052": "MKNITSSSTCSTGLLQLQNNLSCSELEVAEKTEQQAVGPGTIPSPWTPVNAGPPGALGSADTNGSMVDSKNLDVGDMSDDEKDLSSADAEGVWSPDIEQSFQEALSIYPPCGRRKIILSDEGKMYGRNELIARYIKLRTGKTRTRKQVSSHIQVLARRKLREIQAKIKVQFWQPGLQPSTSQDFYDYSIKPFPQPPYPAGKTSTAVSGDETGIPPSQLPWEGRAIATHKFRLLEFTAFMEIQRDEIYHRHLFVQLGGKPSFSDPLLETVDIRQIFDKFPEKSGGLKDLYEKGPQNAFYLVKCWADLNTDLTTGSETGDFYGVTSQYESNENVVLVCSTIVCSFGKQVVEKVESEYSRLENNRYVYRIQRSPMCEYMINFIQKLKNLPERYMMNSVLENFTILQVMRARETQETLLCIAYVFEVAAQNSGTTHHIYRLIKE", "3xFLAG-Sd mNLS^N+C (P30052, form named)": "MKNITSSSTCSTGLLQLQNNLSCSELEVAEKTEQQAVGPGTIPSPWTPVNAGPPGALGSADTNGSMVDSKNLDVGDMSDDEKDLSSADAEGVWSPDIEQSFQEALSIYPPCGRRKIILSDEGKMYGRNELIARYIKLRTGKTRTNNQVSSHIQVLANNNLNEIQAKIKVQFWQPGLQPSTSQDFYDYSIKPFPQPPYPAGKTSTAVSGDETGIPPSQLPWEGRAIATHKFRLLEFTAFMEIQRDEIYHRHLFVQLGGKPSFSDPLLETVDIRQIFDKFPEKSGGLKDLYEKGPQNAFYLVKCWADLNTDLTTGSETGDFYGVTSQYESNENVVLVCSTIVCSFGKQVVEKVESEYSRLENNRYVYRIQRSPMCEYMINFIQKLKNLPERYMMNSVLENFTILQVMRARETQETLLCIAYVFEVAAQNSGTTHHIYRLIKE"}, "source": "paper PMC3121794", "key": {"[1]": {"target": "3xFLAG-Sd (Scalloped) (Drosophila melanogaster) (UniProt P30052)", "experiment": "co-IP; S2 cells expressing 3xFLAG-Sd or 3xFLAG-Sd mNLS^N+C lysed in RIPA buffer (50 mM Tris-HCl, 150 mM NaCl, 1% NP-40, 0.5% deoxycholic acid, 0.1% SDS); lysate incubated with anti-FLAG M2 affinity gel 2 h at 4°C; western blot with anti-FLAG or anti-Importin-α3; mock transfection with water as control"}, "[2]": {"target": "3xFLAG-Sd mNLS^N+C (Drosophila melanogaster) (UniProt P30052)", "experiment": "co-IP; S2 cells expressing 3xFLAG-Sd or 3xFLAG-Sd mNLS^N+C lysed in RIPA buffer (50 mM Tris-HCl, 150 mM NaCl, 1% NP-40, 0.5% deoxycholic acid, 0.1% SDS); lysate incubated with anti-FLAG M2 affinity gel 2 h at 4°C; western blot with anti-FLAG or anti-Importin-α3; mock transfection with water as control"}}, "note": "These are yes or no findings as the source states them, for the method shown. In cells and extracts the contact can be indirect. Some entries that bind do so weakly or less than the wild type.", "data": [{"binder": "Importin-α3 (protein, UniProt Q9V455 1-514) MTSMEQNRLQNFKNKGKDQDEMRRRRNEVTVELRKNKREETILKRRNVPNLDSNTDEEEQLSSSIDLKKLAKAAADATKPEQQLAAVQAARKLLSSDKNPPINDLIQSDILPILVECLKQHNHTMLQFEAAWALTNIASGTSAQTNEVVAAGAVPLFLQLLNSPAPNVCEQAVWALGNIIGDGPLLRDFVIKHGVVQPLLSFIKPDIPITFLRNVTWVIVNLCRNKDPAPPTATIHEILPALNVLIHHTDTNILVDTVWAISYLTDGGNDQIQMVIESGVVPKLIPLLGNSEVKVQTAALRAVGNIVTGSDEQTQVVLNYDALSYFPGLLSHPKEKIRKEAVWFLSNITAGNQSQVQAVINVGLLPKIIENLSKGEFQTQKEAAWAISNLTISGNREQVFTLIKEGVIPPFCDLLSCQDTQVINVVLDGLNNMLKVADSHVEAVANCIEECEGLAKIERLQSHENVEIYKLAYEIIDQYFTDEGEQTNMAPTSDGAQYNFDPHADRLTMNSFNF", "values": [{"measurement": "binding", "setting": "[1]", "value": "binds"}, {"measurement": "binding", "setting": "[2]", "value": "binds weakly"}]}]}
